These are yes or no findings as the source states them, for the method shown. Binding seen in cells or lysates may run through a third protein. Binding can be weak; no strength is given. Tags and fused reporters may be left off the sequences shown.
Legend:
Test in all cases: co-IP; ERECTA-HA and PICALM-GFP co-expressed in Arabidopsis protoplasts; GFP-Trap magnetic agarose, 4 °C, 1 hr, buffer with 150 mM NaCl and 1 % Triton X-100; immunoblot
[1] = target: PICALM3-GFP (Arabidopsis thaliana)
[2] = target: PICALM4A-GFP (Arabidopsis thaliana)
[3] = target: PICALM4B-GFP (Arabidopsis thaliana)

Measured: binding

B1: ERECTA-HA (receptor, UniProt Q42371 25-976)
chain: EEGATLLEIKKSFKDVNNVLYDWTTSPSSDYCVWRGVSCENVTFNVVALNLSDLNLDGEISPAIGDLKSLLSIDLRGNRLSGQIPDEIGDCSSLQNLDLSFNELSGDIPFSISKLKQLEQLILKNNQLIGPIPSTLSQIPNLKILDLAQNKLSGEIPRLIYWNEVLQYLGLRGNNLVGNISPDLCQLTGLWYFDVRNNSLTGSIPETIGNCTAFQVLDLSYNQLTGEIPFDIGFLQVATLSLQGNQLSGKIPSVIGLMQALAVLDLSGNLLSGSIPPILGNLTFTEKLYLHSNKLTGSIPPELGNMSKLHYLELNDNHLTGHIPPELGKLTDLFDLNVANNDLEGPIPDHLSSCTNLNSLNVHGNKFSGTIPRAFQKLESMTYLNLSSNNIKGPIPVELSRIGNLDTLDLSNNKINGIIPSSLGDLEHLLKMNLSRNHITGVVPGDFGNLRSIMEIDLSNNDISGPIPEELNQLQNIILLRLENNNLTGNVGSLANCLSLTVLNVSHNNLVGDIPKNNNFSRFSPDSFIGNPGLCGSWLNSPCHDSRRTVRVSISRAAILGIAIGGLVILLMVLIAACRPHNPPPFLDGSLDKPVTYSTPKLVILHMNMALHVYEDIMRMTENLSEKYIIGHGASSTVYKCVLKNCKPVAIKRLYSHNPQSMKQFETELEMLSSIKHRNLVSLQAYSLSHLGSLLFYDYLENGSLWDLLHGPTKKKTLDWDTRLKIAYGAAQGLAYLHHDCSPRIIHRDVKSSNILLDKDLEARLTDFGIAKSLCVSKSHTSTYVMGTIGYIDPEYARTSRLTEKSDVYSYGIVLLELLTRRKAVDDESNLHHLIMSKTGNNEVMEMADPDITSTCKDLGVVKKVFQLALLCTKRQPNDRPTMHQVTRVLGSFMLSEQPPAATDTSATLAGSCYVDEYANLKTPHSVNCSSMSASDAQLFLRFGQVISQNSE
binds: all assays above

Source: paper doi:10.1101/2025.07.20.665823
